Measurements: doi:10.1101/266833
Results are given in words; binding and its absence hold for the method and conditions named. In cells and extracts the contact can be indirect. These calls come from enrichment with a bait or labelling near it, and not all partners need be listed. For some of these results: A no says only that the protein was not detected with the bait.

T1: Upf3-TAP (S. cerevisiae) (UniProt P48412)
T1 sequence: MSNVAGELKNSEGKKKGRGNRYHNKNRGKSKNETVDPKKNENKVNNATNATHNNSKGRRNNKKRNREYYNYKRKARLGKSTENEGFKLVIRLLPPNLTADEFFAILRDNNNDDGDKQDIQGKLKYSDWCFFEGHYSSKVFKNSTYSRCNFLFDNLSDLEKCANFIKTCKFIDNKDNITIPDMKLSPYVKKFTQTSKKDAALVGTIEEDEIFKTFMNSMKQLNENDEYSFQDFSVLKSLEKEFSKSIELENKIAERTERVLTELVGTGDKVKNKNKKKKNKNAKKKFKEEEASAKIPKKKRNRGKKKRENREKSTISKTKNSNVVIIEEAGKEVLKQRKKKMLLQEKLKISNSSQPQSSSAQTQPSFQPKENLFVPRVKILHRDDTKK

T2: Dcp1-TAP (S. cerevisiae) (UniProt Q12517)
T2 sequence: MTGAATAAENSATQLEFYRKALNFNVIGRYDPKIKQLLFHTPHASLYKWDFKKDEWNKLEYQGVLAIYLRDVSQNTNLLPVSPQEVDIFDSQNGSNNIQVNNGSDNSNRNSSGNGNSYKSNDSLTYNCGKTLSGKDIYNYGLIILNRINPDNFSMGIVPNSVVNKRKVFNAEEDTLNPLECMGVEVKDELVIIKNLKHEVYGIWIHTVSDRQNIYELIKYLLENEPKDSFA

T3: Nmd4-TAP (S. cerevisiae) (UniProt Q12129)
T3 sequence: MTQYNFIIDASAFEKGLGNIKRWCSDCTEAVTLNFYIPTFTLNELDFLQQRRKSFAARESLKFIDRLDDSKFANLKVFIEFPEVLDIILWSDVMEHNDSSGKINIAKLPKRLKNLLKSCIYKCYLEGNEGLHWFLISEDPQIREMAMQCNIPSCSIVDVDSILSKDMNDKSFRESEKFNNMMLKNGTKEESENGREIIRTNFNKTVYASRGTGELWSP

T4: Ebs1-TAP (S. cerevisiae) (UniProt Q03466)
T4 sequence: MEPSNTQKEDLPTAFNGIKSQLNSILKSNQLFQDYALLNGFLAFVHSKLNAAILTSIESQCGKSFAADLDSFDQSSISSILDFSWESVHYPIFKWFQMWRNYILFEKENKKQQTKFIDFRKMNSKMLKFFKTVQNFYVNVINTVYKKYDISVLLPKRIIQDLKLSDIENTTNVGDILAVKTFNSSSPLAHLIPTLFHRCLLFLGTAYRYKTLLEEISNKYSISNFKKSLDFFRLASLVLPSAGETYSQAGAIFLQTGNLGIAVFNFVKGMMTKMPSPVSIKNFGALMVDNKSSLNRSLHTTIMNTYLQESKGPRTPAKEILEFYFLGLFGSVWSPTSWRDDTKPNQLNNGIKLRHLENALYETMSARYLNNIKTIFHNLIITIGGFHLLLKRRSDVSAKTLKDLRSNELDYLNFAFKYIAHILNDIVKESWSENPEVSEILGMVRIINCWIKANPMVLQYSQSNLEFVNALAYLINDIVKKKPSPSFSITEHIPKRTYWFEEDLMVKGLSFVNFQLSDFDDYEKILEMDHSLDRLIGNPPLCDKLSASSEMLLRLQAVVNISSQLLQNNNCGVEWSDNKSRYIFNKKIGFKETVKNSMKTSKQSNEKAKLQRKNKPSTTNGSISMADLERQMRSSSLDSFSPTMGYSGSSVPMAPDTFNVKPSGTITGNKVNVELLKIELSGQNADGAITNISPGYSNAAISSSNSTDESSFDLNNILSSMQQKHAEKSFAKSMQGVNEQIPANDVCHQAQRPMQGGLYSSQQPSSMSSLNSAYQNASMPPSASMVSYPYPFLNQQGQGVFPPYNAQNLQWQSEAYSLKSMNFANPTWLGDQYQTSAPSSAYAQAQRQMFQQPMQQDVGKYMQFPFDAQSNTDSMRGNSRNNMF

T5: Hrr25-TAP (S. cerevisiae) (UniProt P29295)
T5 sequence: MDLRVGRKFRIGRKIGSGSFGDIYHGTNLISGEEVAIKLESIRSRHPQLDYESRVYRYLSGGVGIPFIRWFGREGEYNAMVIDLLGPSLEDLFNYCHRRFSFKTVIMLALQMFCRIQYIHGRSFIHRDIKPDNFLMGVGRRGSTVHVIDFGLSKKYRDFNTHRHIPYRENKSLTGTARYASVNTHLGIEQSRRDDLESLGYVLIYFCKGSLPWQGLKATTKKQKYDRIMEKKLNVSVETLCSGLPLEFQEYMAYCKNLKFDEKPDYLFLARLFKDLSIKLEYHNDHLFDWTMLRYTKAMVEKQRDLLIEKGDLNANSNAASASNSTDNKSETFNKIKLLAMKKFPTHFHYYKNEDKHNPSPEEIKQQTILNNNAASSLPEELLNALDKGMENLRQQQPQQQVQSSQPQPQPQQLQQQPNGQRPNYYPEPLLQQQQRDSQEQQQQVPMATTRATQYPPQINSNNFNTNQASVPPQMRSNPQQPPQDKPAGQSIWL

T6: Upf2-TAP (S. cerevisiae) (UniProt P38798)
T6 sequence: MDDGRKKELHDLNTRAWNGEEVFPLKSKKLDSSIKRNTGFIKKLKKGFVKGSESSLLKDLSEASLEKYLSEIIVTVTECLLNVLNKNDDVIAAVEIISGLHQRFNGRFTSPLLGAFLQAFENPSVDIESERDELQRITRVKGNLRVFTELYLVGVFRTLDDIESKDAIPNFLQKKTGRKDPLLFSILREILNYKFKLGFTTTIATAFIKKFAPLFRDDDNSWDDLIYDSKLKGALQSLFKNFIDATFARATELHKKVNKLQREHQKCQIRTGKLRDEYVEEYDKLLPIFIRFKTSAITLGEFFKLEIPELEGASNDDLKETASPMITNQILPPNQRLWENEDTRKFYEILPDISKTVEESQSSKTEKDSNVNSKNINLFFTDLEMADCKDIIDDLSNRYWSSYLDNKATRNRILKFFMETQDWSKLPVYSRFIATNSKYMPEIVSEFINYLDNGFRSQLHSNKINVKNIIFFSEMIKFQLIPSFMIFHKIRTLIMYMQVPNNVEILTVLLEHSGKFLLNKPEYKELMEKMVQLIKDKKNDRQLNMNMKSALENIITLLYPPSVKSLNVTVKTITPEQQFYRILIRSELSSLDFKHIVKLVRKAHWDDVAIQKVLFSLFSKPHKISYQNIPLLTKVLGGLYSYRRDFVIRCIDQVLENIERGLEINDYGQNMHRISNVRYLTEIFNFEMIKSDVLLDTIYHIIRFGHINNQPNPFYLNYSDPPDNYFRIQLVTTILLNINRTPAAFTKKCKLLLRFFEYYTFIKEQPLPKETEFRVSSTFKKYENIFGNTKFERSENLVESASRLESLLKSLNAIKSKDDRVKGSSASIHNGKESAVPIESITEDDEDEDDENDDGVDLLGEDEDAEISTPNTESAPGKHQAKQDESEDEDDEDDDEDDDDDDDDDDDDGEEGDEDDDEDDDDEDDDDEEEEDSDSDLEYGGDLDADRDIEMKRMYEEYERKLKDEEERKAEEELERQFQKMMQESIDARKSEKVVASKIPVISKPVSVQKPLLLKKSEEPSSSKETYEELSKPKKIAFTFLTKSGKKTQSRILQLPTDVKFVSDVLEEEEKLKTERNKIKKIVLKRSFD


Tests used:
Assay in all cases: affinity purification with mass spectrometry
[1] = molecular target: T1, Upf3-TAP (S. cerevisiae)
[2] = molecular target: T2, Dcp1-TAP (S. cerevisiae)
[3] = molecular target: T3, Nmd4-TAP (S. cerevisiae)
[4] = molecular target: T4, Ebs1-TAP (S. cerevisiae)
[5] = molecular target: T5, Hrr25-TAP (S. cerevisiae)
[6] = molecular target: T6, Upf2-TAP (S. cerevisiae)

binding [1] | binding [2] | binding [3] | binding [4] | binding [5] | binding [6] | Binder
binds | no binding | no binding | no binding | no binding | – | Upf2 (protein, UniProt P38798 1-1089) MDDGRKKELHDLNTRAWNGEEVFPLKSKKLDSSIKRNTGFIKKLKKGFVKGSESSLLKDLSEASLEKYLSEIIVTVTECLLNVLNKNDDVIAAVEIISGLHQRFNGRFTSPLLGAFLQAFENPSVDIESERDELQRITRVKGNLRVFTELYLVGVFRTLDDIESKDAIPNFLQKKTGRKDPLLFSILREILNYKFKLGFTTTIATAFIKKFAPLFRDDDNSWDDLIYDSKLKGALQSLFKNFIDATFARATELHKKVNKLQREHQKCQIRTGKLRDEYVEEYDKLLPIFIRFKTSAITLGEFFKLEIPELEGASNDDLKETASPMITNQILPPNQRLWENEDTRKFYEILPDISKTVEESQSSKTEKDSNVNSKNINLFFTDLEMADCKDIIDDLSNRYWSSYLDNKATRNRILKFFMETQDWSKLPVYSRFIATNSKYMPEIVSEFINYLDNGFRSQLHSNKINVKNIIFFSEMIKFQLIPSFMIFHKIRTLIMYMQVPNNVEILTVLLEHSGKFLLNKPEYKELMEKMVQLIKDKKNDRQLNMNMKSALENIITLLYPPSVKSLNVTVKTITPEQQFYRILIRSELSSLDFKHIVKLVRKAHWDDVAIQKVLFSLFSKPHKISYQNIPLLTKVLGGLYSYRRDFVIRCIDQVLENIERGLEINDYGQNMHRISNVRYLTEIFNFEMIKSDVLLDTIYHIIRFGHINNQPNPFYLNYSDPPDNYFRIQLVTTILLNINRTPAAFTKKCKLLLRFFEYYTFIKEQPLPKETEFRVSSTFKKYENIFGNTKFERSENLVESASRLESLLKSLNAIKSKDDRVKGSSASIHNGKESAVPIESITEDDEDEDDENDDGVDLLGEDEDAEISTPNTESAPGKHQAKQDESEDEDDEDDDEDDDDDDDDDDDDGEEGDEDDDEDDDDEDDDDEEEEDSDSDLEYGGDLDADRDIEMKRMYEEYERKLKDEEERKAEEELERQFQKMMQESIDARKSEKVVASKIPVISKPVSVQKPLLLKKSEEPSSSKETYEELSKPKKIAFTFLTKSGKKTQSRILQLPTDVKFVSDVLEEEEKLKTERNKIKKIVLKRSFD
– | no binding | no binding | no binding | no binding | binds | Upf3 (protein, UniProt P48412 1-387) MSNVAGELKNSEGKKKGRGNRYHNKNRGKSKNETVDPKKNENKVNNATNATHNNSKGRRNNKKRNREYYNYKRKARLGKSTENEGFKLVIRLLPPNLTADEFFAILRDNNNDDGDKQDIQGKLKYSDWCFFEGHYSSKVFKNSTYSRCNFLFDNLSDLEKCANFIKTCKFIDNKDNITIPDMKLSPYVKKFTQTSKKDAALVGTIEEDEIFKTFMNSMKQLNENDEYSFQDFSVLKSLEKEFSKSIELENKIAERTERVLTELVGTGDKVKNKNKKKKNKNAKKKFKEEEASAKIPKKKRNRGKKKRENREKSTISKTKNSNVVIIEEAGKEVLKQRKKKMLLQEKLKISNSSQPQSSSAQTQPSFQPKENLFVPRVKILHRDDTKK
